# Source: the supplement of paper PMC12067093, “Discovery and optimisation of a covalent ligand for TRIM25 and its application to targeted protein ubiquitination” (Chemical Science, 2025)
# By UniProt entry, the sequences of proteins in these tests, tags left out. Where a name states a change or a piece, a line headed by the entry shows the natural chain unless it says otherwise.
# UniProt P33121: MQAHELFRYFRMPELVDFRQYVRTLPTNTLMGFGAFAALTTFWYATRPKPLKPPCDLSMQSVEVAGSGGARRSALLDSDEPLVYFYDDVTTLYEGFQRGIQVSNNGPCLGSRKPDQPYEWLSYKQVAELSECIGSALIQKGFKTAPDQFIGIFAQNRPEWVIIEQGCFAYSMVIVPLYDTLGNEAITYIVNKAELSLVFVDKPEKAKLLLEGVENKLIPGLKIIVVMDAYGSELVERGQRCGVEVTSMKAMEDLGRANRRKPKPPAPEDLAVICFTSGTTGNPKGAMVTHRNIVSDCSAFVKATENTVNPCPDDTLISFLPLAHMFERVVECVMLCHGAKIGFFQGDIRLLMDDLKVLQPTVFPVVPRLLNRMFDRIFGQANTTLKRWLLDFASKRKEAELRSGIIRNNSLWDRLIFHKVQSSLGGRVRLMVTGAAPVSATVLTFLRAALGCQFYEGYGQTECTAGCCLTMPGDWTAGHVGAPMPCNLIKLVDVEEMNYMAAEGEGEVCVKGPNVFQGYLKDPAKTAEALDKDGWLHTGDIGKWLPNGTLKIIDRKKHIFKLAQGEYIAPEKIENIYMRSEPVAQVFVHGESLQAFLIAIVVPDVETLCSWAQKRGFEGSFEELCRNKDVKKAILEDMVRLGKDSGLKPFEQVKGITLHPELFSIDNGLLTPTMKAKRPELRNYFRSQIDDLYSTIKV
# UniProt O14672: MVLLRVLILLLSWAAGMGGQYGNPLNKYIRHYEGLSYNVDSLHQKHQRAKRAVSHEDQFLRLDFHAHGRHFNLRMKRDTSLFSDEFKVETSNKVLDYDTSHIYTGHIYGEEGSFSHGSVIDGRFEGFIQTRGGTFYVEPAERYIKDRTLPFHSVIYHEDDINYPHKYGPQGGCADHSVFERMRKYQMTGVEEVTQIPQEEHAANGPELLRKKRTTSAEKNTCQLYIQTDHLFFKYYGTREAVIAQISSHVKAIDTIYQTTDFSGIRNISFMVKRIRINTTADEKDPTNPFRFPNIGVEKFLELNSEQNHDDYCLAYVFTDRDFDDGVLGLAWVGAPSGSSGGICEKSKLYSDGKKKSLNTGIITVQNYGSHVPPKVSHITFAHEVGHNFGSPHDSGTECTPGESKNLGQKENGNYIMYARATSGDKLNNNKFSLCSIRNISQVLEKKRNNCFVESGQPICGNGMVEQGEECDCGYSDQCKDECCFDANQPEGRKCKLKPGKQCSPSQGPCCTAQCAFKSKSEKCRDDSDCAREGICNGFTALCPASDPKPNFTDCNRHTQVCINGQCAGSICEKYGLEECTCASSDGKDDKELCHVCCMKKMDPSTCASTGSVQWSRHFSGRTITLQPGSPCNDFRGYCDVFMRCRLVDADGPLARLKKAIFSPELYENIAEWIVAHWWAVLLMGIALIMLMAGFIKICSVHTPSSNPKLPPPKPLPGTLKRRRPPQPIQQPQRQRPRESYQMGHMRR
# UniProt Q9H2P0: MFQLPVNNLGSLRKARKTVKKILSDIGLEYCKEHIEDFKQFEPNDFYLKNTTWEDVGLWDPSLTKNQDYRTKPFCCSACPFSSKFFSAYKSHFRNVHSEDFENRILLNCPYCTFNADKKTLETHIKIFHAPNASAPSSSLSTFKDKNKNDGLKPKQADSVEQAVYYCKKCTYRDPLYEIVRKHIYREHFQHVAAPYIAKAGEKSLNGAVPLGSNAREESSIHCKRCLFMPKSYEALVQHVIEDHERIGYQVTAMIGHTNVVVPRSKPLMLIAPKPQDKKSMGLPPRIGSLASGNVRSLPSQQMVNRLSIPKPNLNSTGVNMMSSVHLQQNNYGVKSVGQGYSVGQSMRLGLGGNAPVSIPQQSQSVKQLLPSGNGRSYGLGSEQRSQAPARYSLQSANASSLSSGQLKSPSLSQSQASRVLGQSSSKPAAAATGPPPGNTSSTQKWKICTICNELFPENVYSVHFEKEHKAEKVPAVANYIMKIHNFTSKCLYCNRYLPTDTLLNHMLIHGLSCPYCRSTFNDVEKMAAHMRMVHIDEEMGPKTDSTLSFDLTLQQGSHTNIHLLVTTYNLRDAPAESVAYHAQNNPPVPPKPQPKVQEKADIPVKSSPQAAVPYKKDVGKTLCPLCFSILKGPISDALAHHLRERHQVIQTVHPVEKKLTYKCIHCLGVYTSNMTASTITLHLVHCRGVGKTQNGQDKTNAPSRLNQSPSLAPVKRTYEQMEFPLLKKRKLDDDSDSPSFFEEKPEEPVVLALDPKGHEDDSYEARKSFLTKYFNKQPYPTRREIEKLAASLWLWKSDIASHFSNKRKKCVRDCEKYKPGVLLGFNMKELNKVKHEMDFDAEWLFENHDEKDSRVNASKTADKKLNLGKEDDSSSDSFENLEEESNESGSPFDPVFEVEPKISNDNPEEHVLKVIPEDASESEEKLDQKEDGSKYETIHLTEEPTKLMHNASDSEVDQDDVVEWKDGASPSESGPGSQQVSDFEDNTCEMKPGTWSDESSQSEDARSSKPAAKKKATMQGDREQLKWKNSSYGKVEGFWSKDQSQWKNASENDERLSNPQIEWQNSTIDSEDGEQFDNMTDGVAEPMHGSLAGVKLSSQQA
# UniProt Q9H6R3: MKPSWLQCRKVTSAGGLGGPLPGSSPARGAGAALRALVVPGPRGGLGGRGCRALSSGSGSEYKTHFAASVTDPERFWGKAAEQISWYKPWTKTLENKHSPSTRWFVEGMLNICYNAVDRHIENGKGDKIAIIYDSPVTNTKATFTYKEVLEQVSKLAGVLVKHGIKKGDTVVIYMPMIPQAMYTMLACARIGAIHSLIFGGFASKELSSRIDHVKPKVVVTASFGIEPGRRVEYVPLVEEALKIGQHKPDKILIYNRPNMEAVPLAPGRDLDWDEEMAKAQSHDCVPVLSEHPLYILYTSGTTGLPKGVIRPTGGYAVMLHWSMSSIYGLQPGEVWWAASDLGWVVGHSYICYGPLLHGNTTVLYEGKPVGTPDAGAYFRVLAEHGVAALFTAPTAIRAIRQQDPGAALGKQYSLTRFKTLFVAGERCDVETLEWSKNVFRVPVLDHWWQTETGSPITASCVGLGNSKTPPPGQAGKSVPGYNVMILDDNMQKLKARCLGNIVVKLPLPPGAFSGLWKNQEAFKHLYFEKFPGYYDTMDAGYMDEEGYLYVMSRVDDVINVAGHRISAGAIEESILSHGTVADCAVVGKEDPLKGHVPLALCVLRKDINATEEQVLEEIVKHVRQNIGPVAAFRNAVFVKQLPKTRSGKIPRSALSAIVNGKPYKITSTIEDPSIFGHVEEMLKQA
# UniProt P55265: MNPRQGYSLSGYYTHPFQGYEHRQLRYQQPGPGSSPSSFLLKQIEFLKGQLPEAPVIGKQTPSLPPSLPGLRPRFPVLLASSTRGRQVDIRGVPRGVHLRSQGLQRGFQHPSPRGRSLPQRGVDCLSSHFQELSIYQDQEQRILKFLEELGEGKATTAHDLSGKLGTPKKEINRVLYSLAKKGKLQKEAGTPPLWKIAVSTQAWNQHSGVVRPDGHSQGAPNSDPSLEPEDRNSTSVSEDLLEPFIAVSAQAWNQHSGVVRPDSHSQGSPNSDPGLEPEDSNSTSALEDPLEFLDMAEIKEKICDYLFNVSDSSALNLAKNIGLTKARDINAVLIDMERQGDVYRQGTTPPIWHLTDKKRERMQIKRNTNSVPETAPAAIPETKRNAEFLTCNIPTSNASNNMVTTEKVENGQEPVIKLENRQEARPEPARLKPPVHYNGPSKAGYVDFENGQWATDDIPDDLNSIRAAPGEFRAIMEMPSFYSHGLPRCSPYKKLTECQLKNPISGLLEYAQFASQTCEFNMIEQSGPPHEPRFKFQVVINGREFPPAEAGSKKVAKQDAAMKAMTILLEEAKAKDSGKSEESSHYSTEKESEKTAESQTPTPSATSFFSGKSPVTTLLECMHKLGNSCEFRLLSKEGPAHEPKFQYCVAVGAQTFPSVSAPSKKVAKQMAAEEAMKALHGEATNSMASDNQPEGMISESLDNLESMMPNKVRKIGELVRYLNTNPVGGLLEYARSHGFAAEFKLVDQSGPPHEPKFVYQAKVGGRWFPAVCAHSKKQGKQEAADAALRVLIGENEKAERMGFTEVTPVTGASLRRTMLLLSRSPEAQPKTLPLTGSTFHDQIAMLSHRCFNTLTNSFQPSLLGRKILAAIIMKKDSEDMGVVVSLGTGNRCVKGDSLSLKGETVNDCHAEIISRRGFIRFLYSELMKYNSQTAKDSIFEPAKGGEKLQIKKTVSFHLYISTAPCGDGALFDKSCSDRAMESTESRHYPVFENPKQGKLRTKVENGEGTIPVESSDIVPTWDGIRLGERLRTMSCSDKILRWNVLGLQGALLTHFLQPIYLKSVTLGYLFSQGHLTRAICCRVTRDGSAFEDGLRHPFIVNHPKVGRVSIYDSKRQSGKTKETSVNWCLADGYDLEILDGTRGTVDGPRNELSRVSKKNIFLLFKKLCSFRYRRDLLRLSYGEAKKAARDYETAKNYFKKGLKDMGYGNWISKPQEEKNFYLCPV
# UniProt P20933: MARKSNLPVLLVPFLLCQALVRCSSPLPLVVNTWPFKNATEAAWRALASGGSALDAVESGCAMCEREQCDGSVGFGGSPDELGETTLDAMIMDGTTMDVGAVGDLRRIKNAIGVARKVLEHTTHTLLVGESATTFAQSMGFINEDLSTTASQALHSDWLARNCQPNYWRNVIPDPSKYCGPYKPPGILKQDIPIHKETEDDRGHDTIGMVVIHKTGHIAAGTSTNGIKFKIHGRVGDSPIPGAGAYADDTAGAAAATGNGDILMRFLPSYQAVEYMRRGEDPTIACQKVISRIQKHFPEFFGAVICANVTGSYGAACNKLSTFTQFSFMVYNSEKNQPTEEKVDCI
# UniProt Q9Y4W6: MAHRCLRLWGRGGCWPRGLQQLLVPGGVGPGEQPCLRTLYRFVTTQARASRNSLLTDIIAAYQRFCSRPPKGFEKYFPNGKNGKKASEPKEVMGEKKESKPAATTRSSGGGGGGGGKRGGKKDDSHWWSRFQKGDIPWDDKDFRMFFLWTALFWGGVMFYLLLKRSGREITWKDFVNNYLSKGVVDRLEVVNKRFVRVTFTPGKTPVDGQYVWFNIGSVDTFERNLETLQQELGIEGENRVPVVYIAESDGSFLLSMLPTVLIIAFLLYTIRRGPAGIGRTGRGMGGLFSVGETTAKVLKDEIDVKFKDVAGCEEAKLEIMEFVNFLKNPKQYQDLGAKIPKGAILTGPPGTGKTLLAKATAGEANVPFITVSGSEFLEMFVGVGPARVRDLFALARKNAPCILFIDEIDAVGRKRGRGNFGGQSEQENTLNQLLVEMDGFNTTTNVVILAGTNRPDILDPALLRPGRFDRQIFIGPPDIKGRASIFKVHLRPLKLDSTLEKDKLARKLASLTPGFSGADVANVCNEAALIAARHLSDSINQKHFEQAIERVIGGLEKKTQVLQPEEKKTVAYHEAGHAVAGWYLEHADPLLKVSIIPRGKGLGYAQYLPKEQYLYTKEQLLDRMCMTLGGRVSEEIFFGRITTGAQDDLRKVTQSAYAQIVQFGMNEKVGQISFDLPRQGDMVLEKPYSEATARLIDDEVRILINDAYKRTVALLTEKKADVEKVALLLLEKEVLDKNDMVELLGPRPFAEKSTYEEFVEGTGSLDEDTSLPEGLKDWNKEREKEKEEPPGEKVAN
# UniProt Q9BRR6: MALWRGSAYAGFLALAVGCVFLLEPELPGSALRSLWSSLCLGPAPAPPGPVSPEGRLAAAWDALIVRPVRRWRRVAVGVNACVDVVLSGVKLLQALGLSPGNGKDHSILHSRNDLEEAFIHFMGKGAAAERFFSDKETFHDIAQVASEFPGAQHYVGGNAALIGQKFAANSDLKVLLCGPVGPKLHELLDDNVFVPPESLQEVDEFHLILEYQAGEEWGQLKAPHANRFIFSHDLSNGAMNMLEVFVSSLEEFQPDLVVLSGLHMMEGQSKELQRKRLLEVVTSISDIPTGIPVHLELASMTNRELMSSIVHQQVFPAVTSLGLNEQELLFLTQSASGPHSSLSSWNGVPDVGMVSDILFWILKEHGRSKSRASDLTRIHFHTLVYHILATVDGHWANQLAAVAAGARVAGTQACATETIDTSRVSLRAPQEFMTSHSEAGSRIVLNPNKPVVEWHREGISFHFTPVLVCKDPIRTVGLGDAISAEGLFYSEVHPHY
# UniProt Q9NZ32, whole entry, looked up: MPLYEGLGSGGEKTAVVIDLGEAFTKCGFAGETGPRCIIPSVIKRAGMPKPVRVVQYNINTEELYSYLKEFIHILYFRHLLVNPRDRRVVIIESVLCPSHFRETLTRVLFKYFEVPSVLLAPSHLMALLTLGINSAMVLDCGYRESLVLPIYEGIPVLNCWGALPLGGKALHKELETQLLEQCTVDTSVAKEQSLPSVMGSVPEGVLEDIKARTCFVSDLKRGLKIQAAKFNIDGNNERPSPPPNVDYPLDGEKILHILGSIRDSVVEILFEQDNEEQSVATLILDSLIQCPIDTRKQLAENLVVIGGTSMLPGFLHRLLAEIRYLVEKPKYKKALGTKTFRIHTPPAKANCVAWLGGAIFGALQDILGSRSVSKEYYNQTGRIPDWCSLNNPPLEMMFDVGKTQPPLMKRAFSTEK
# Some of the results follow.
# Compound: Cc1cc(ccc1-c1ccccc1)C(=O)N1CCCN(CC1)C(=O)CCl [compound 10]
# Experiment: probe-labelled cysteine peptide fold change vs DMSO (competition) (log2 fold change); higher = less target engagement (more negative = stronger competition)
# Settings: 10 µM; THP-1; incubation time: 4 h
# 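Note: competitive profiling in live THP-1 cells: cysteine peptides tagged with an iodoacetamide desthiobiotin (IA-DTB) probe, intensity after compound treatment relative to DMSO-treated cells.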
row,Target,probe-labelled cysteine peptide fold change
1,ADGRA2_Q96PE1_196_VVDLGTEFLTCDCHLR (UniProt Q96PE1),0.218
2,ADGRL3_Q9HAR2_135_VFLCPGLLK (UniProt Q9HAR2),0.0697
3,ACTG1_P63261_17_MEEEIAALVIDNGSGMCK (UniProt P63261),-0.614
4,ACSL1_P33121_241_CGVEVTSMK (UniProt P33121),-0.0907
5,ADAM10_O14672_530_DDSDCAR (UniProt O14672),0.552
6,ADIPOR1_Q96A54_54_AEEEQTCPVPQEEEEEVR (UniProt Q96A54),-0.269
7,ADNP_Q9H2P0_76+79_TKPFCCSACPFSSK (UniProt Q9H2P0),-0.203
8,ADK_P55263_160_SLIANLAAANCYKK (UniProt P55263),-0.309
9,ADD2_P35612_177_GVSCSEVTASSLIK (UniProt P35612),0.0303
10,ADNP_Q9H2P0_226_CLFMPK (UniProt Q9H2P0),0.111
11,ACSS3_Q9H6R3_602_GHVPLALCVLR (UniProt Q9H6R3),0.137
12,ADAR_P55265_909_GDSLSLKGETVNDCHAEIISR (UniProt P55265),-0.134
13,ACTN4_O43707_793_ACLISLGYDVENDR (UniProt O43707),0.283
14,ADAR_P55265_909_GETVNDCHAEIISR (UniProt P55265),0.0579
15,ADNP_Q9H2P0_449_ICTICNELFPENVYSVHFEK (UniProt Q9H2P0),0.042
16,ADAM10_O14672_484_DECCFDANQPEGR (UniProt O14672),-0.216
17,AGA_P20933_179_YCGPYKPPGILK (UniProt P20933),-0.203
18,ADRM1_Q16186_60_GLVYIQQTDDSLIHFCWK (UniProt Q16186),0.00467

row,Target,probe-labelled cysteine peptide fold change
1,ADGRL2_O95490_1250_GDYNDSVQVVDCGLSLNDTAFEK (UniProt O95490),-0.311
2,ADA_P00813_262_QENMHFEICPWSSYLTGAWKPDTEHAVIR (UniProt P00813),-0.043
3,AFG3L2_Q9Y4W6_525_LASLTPGFSGADVANVCNEAALIAAR (UniProt Q9Y4W6),-0.126
4,ADPGK_Q9BRR6_178_VLLCGPVGPK (UniProt Q9BRR6),0.128
5,ADH5_P11766_97+100_AGDTVIPLYIPQCGECK (UniProt P11766),0.0159
6,ACSL4_O60488_552_WFCTGDIGEFHPDGCLQIIDR (UniProt O60488),-0.176
7,ACSS3_Q9H6R3_285_AQSHDCVPVLSEHPLYILYTSGTTGLPK (UniProt Q9H6R3),0.038
8,ACTB_P60709_17_DDDIAALVVDNGSGMCK (UniProt P60709),-0.291
9,AFG3L2_Q9Y4W6_402_NAPCILFIDEIDAVGRK (UniProt Q9Y4W6),0.154
10,AGGF1_Q8N302_307_AFSVEHTSCNEEENFANMK (UniProt Q8N302),0.226
11,ADA2_Q9NZK5_408_DIPIEVCPISNQVLK (UniProt Q9NZK5),-0.147
12,ACSL1_P33121_274_KPKPPAPEDLAVICFTSGTTGNPK (UniProt P33121),-0.0595
13,AGL_P35573_486_ELICWGDSVK (UniProt P35573),0.0938
14,ADAM10_O14672_582_YGLEECTCASSDGKDDK (UniProt O14672),0.0474
15,ACTR10_Q9NZ32_215_TCFVSDLK (UniProt Q9NZ32),-0.0292
16,ADNP_Q9H2P0_31_ILSDIGLEYCK (UniProt Q9H2P0),-0.0612
17,ACTR3_P61158_408_DYEEIGPSICR (UniProt P61158),0.0427
18,ACSL1_P33121_336_VVECVMLCHGAK (UniProt P33121),0.15
